From the supplement of paper PMC10849652
This is one part of the list.

Chains of the proteins cited; added tags and fusions are not shown. Lines headed by an entry give the natural chain unless they say otherwise; changes in a name come on top.
UniProt Q96KG9: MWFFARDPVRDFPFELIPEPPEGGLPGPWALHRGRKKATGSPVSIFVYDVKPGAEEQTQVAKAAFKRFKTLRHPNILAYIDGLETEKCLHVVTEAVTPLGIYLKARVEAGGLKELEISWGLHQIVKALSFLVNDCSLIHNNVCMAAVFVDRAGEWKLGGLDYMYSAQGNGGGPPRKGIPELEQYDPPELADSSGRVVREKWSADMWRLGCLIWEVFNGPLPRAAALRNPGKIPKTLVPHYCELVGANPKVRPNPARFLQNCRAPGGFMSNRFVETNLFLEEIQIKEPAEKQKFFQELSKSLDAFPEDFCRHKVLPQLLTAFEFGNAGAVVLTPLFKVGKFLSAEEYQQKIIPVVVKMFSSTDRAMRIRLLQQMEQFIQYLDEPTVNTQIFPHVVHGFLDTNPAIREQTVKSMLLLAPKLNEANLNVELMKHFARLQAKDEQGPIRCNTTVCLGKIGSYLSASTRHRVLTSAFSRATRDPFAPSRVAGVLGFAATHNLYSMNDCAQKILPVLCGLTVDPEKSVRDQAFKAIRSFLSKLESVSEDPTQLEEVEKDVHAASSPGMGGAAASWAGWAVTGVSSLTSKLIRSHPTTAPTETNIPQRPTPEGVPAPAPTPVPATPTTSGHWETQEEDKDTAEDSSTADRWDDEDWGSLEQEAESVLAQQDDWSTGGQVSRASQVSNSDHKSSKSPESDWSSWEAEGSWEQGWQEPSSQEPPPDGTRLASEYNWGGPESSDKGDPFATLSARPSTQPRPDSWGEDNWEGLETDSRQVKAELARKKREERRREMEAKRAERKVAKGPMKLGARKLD
UniProt Q8IZQ5, whole entry, looked up: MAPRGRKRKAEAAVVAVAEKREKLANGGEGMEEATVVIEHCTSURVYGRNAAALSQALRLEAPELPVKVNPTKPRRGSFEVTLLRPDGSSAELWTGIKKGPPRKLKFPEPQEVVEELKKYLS
UniProt P67812: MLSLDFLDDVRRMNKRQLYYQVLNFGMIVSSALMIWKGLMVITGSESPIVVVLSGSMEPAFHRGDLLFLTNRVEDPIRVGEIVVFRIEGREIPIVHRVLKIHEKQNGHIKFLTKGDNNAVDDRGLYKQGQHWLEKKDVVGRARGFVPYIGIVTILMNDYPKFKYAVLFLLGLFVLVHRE
UniProt Q9UPN6: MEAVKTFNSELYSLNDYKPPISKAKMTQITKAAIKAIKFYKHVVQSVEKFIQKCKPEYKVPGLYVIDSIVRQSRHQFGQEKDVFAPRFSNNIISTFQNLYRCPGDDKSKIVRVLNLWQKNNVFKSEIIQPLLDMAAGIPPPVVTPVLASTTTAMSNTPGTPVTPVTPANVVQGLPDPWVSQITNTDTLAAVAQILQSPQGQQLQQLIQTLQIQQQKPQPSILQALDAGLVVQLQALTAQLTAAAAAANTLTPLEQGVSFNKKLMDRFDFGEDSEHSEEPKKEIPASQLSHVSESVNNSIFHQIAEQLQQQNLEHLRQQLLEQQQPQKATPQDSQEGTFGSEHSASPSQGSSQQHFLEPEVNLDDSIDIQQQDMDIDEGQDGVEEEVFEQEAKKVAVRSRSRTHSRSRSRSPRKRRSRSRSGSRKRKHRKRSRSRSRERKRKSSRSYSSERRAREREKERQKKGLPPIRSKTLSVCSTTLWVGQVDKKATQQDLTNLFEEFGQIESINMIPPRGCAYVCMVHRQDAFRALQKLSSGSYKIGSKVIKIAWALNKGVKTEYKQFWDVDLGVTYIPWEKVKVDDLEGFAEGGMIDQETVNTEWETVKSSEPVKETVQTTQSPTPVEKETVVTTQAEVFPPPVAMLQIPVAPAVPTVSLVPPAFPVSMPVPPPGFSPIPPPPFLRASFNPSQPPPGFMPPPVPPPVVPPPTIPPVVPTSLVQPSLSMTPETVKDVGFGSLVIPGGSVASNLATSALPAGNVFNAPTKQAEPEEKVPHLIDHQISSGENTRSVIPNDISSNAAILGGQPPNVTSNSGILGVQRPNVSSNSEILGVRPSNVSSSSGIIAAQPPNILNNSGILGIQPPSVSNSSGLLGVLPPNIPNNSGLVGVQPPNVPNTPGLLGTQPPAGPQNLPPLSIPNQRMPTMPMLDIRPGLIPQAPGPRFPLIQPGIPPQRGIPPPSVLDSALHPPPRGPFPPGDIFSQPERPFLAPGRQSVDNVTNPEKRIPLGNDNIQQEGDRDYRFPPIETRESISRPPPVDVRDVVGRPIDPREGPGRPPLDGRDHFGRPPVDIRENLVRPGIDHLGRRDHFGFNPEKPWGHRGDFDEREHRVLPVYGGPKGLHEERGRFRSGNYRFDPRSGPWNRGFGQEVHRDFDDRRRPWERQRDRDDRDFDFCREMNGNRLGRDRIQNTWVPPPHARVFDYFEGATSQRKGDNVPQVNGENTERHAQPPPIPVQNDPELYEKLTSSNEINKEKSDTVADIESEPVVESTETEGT
UniProt Q99590: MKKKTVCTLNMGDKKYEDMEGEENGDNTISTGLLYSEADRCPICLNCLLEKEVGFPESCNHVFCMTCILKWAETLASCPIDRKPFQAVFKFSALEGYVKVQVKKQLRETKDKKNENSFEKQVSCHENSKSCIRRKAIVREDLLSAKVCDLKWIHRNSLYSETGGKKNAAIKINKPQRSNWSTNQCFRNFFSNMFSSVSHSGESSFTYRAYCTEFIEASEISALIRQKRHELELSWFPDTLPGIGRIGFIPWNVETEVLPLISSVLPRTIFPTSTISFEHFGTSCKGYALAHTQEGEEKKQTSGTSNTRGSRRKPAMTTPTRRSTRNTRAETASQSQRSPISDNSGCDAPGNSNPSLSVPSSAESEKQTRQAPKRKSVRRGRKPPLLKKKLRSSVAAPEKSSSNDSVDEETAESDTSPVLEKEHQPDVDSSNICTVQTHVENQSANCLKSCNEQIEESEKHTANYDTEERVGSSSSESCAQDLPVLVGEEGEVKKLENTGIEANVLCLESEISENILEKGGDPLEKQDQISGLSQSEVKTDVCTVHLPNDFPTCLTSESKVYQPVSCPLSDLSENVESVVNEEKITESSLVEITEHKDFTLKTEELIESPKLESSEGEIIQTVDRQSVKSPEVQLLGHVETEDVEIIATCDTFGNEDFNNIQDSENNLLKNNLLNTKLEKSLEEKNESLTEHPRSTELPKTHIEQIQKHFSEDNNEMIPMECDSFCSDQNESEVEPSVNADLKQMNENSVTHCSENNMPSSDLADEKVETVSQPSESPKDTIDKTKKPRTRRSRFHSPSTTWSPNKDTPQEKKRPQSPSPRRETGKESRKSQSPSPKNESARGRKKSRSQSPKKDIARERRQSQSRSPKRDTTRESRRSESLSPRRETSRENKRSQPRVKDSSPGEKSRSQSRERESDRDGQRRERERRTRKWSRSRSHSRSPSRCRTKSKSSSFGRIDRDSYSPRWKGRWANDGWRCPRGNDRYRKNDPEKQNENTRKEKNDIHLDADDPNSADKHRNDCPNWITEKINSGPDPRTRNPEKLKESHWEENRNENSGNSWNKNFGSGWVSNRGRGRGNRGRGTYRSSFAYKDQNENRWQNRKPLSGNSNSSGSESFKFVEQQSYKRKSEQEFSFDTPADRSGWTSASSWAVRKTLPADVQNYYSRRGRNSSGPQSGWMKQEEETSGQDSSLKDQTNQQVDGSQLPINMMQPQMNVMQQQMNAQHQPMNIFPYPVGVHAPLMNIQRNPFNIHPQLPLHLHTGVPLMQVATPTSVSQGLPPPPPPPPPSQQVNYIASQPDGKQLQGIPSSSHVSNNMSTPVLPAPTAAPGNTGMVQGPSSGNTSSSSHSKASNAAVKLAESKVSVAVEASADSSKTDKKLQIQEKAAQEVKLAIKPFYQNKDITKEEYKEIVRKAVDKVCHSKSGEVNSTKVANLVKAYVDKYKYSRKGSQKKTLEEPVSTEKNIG
UniProt Q9HD40: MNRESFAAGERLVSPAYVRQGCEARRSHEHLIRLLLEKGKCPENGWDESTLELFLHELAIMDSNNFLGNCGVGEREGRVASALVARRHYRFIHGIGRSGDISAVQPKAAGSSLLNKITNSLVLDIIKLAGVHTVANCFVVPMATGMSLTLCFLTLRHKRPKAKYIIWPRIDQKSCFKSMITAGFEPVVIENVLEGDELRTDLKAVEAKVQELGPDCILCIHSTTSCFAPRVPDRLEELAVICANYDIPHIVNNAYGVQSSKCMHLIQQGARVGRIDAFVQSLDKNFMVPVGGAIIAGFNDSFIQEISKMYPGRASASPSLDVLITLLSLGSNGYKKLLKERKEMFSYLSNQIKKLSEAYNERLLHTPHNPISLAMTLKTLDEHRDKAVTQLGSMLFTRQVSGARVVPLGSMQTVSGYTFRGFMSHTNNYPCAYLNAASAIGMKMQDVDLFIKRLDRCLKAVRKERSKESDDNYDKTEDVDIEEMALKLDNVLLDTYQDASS
UniProt O75326: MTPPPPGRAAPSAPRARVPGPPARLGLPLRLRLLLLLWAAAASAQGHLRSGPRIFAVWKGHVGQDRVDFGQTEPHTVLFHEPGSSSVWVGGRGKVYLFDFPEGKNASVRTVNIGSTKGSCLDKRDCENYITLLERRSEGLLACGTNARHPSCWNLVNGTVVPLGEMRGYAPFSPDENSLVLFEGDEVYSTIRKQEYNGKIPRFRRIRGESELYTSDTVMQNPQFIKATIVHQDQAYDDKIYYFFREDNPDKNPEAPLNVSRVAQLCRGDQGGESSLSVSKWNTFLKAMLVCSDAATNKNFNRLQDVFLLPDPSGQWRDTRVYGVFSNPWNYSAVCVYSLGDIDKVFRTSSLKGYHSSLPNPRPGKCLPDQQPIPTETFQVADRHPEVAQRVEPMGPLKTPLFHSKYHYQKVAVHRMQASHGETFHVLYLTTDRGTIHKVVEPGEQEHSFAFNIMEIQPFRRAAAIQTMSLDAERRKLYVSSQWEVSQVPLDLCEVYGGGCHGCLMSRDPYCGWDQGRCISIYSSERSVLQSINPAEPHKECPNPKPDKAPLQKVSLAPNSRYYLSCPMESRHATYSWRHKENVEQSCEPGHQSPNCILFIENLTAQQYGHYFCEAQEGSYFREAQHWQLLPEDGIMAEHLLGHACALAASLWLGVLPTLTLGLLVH
UniProt Q15019: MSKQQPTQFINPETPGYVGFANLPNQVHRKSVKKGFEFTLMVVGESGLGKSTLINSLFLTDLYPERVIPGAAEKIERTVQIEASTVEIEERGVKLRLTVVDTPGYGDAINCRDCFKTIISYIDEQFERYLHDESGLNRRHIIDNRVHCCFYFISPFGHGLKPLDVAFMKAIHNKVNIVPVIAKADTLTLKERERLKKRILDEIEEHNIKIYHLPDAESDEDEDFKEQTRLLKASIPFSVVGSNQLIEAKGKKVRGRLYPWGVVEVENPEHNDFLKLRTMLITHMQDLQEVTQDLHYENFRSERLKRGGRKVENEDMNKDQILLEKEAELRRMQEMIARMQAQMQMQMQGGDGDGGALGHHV
UniProt Q8NBX0: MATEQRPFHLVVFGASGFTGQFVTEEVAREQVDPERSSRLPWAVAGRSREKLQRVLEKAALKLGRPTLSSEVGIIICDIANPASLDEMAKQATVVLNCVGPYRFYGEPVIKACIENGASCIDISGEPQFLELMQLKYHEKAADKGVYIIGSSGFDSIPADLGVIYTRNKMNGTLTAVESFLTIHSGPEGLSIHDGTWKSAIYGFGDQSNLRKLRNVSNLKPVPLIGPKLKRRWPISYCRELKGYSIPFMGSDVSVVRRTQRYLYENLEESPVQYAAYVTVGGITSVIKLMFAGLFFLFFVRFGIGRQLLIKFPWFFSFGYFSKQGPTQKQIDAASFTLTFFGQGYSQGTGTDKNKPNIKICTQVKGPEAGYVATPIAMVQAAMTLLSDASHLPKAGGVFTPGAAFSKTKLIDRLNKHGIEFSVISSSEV
UniProt P25815: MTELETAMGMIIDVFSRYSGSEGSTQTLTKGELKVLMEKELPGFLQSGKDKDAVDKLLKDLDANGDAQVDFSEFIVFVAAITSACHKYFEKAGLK
UniProt Q9BW04: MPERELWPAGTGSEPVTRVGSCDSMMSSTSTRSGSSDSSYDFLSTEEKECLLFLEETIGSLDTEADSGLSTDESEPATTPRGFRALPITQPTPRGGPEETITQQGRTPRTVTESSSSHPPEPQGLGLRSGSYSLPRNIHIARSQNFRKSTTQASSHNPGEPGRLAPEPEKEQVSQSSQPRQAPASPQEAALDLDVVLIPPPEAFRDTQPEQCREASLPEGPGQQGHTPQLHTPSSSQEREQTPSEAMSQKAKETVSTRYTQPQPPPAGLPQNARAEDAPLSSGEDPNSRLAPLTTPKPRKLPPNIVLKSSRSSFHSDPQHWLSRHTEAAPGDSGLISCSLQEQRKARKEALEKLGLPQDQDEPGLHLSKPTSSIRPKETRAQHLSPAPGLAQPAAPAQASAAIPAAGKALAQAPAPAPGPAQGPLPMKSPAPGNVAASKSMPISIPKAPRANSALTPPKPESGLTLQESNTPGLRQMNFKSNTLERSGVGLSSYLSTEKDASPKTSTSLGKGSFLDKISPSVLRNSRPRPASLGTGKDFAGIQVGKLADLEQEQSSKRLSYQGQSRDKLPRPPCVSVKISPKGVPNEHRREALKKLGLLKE

What was measured:
Assay in all cases: log2 fold change, soluble protein after heating vs DMSO (PISA); higher = thermal stabilisation; K562 lysate, 10 uM; active = over 0.2 and 3.5 SD of the protein, either way, in both replicates (recomputed)
alvocidib = compound: CN1CC[C@H](c2c(O)cc(O)c3c(=O)cc(-c4ccccc4Cl)oc23)[C@H](O)C1 [alvocidib]
Method in brief: (§1)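 K562 pellets were dounce-homogenised in PBS pH 7.4 with 1 mM MgCl2, and the crude extract at 1 mg/mL protein was treated with 10 μM compound for 30 min. Aliquots were heated for 3 min across 48°C-58°C, pooled, and brought to 0.5% NP-40 at 4°C; soluble protein was the supernatant after 21,000xg for 90 min. Soluble protein was quantified by TMTpro 16plex LC-MS/MS with channel sums equalised, and reported as log2 fold change in thermal stability against DMSO controls, with values from duplicates.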

Tubastatin A = compound: CN1CCc2c(c3ccccc3n2Cc2ccc(C(=O)NO)cc2)C1 [Tubastatin A]
Method in brief: as §1

[1] = compound: CNC(=O)C1=CC=CC=C1NC2=NC(=NC=C2Cl)NC3=C(C=C(C=C3)N4CCOCC4)OC
Method in brief: as §1

defactinib = compound: CNC(=O)c1ccc(Nc2ncc(C(F)(F)F)c(NCc3nccnc3N(C)S(C)(=O)=O)n2)cc1 [defactinib]
Method in brief: as §1

[2] = compound: CNc1nc(-c2ccc3c(N)n[nH]c3c2)cc(N2C[C@@H](C(=O)NC3CCCCC3)CC[C@H]2C)n1
Method in brief: as §1

encorafenib = compound: COC(=O)N[C@@H](C)CNc1nccc(-c2cn(C(C)C)nc2-c2cc(Cl)cc(NS(C)(=O)=O)c2F)n1 [encorafenib]
Method in brief: as §1

[3] = compound: COC(=O)[C@H](CCSC)NC(=O)C1=C(C=C(C=C1)NC[C@H](CS)N)C2=CC=CC=C2
Method in brief: as §1

alisertib = compound: COc1cc(Nc2ncc3c(n2)-c2ccc(Cl)cc2C(c2c(F)cccc2OC)=NC3)ccc1C(=O)O [alisertib]
Method in brief: as §1

[4] = compound: COc1cc2nc(-c3cc(F)ccc3O)nc(N[C@@H]3CNC[C@H]3C(C)(C)O)c2cc1OC
Method in brief: as §1

gefitinib = compound: COc1cc2ncnc(Nc3ccc(F)c(Cl)c3)c2cc1OCCCN1CCOCC1 [gefitinib]
Method in brief: as §1

lapatinib = compound: CS(=O)(=O)CCNCc1ccc(-c2ccc3ncnc(Nc4ccc(OCc5cccc(F)c5)c(Cl)c4)c3c2)o1 [lapatinib]
Method in brief: as §1

pictilisib = compound: CS(=O)(=O)N1CCN(Cc2cc3nc(-c4cccc5[nH]ncc45)nc(N4CCOCC4)c3s2)CC1 [pictilisib]
Method in brief: as §1

crizotinib = compound: C[C@@H](Oc1cc(-c2cnn(C3CCNCC3)c2)cnc1N)c1c(Cl)ccc(F)c1Cl [crizotinib]
Method in brief: as §1

[5] = compound: C[C@H](C1=CC=C(C=C1)C(=O)NC2=C3C=CNC3=NC=C2)N
Method in brief: as §1

duvelisib = compound: C[C@H](Nc1ncnc2nc[nH]c12)c1cc2cccc(Cl)c2c(=O)n1-c1ccccc1 [duvelisib]
Method in brief: as §1

gandotinib = compound: Cc1cc(Nc2cc(CN3CCOCC3)c3nc(C)c(Cc4ccc(Cl)cc4F)n3n2)n[nH]1 [gandotinib]
Method in brief: as §1

tozasertib = compound: Cc1cc(Nc2cc(N3CCN(C)CC3)nc(Sc3ccc(NC(=O)C4CC4)cc3)n2)n[nH]1 [tozasertib]
Method in brief: as §1

doramapimod = compound: Cc1ccc(-n2nc(C(C)(C)C)cc2NC(=O)Nc2ccc(OCCN3CCOCC3)c3ccccc23)cc1 [doramapimod]
Method in brief: as §1

bafetinib = compound: Cc1ccc(NC(=O)c2ccc(CN3CC[C@H](N(C)C)C3)c(C(F)(F)F)c2)cc1Nc1nccc(-c2cncnc2)n1 [bafetinib]
Method in brief: as §1

[6] = compound: Cc1cccc(CC(=O)N2CCc3c2ccc(-c2cn(C)c4ncnc(N)c24)c3F)n1
Method in brief: as §1

Measured: log2 fold change

SEMA4B (UniProt Q9NPR2)
inactive: alvocidib -0.055 | Tubastatin A 0.138 | [1] 0.004 | defactinib -0.095 | [2] -0.061 | encorafenib -0.248 | [3] 0.113 | alisertib -0.105 | [4] 0.09 | gefitinib 0.051 | lapatinib 0.038 | pictilisib -0.135 | crizotinib 0.069 | [5] -0.104 | duvelisib -0.006 | gandotinib 0.011 | tozasertib -0.006 | doramapimod -0.021 | bafetinib -0.174 | [6] 0.043

SCYL1 (UniProt Q96KG9)
inactive: alvocidib -0.041 | Tubastatin A -0.032 | [1] 0.051 | defactinib 0.031 | [2] 0.037 | encorafenib 0.081 | [3] -0.039 | alisertib 0.032 | [4] 0.042 | gefitinib 0.034 | lapatinib 0.054 | pictilisib 0.007 | crizotinib 0.016 | [5] -0.007 | duvelisib -0.021 | gandotinib 0.069 | tozasertib 0.012 | doramapimod 0.128 | bafetinib -0.018 | [6] 0.011

SELENOH (UniProt Q8IZQ5)
inactive: alvocidib 0.005 | Tubastatin A 0.048 | [1] 0.005 | defactinib -0.024 | [2] 0.02 | encorafenib 0.009 | [3] 0.013 | alisertib -0.014 | [4] -0.023 | gefitinib 0.032 | lapatinib -0.042 | pictilisib -0.02 | crizotinib -0.001 | [5] 0.193 | duvelisib -0.004 | gandotinib -0.036 | tozasertib -0.03 | doramapimod 0.006 | bafetinib -0.035 | [6] -0.069

SEC11A (UniProt P67812)
inactive: alvocidib 0.025 | Tubastatin A 0.01 | [1] -0.006 | defactinib -0.031 | [2] -0.033 | encorafenib 0.016 | [3] -0.023 | alisertib 0.002 | [4] 0.018 | gefitinib 0.019 | lapatinib -0.039 | pictilisib -0.017 | crizotinib -0.031 | [5] 0 | duvelisib 0.035 | gandotinib -0.032 | tozasertib 0.031 | doramapimod 0.057 | bafetinib -0.078 | [6] 0.064

SCAF8 (UniProt Q9UPN6)
inactive: alvocidib -0.001 | Tubastatin A -0.068 | [1] -0.028 | defactinib -0.015 | [2] 0.003 | encorafenib 0.02 | [3] 0.043 | alisertib 0.003 | [4] 0.008 | gefitinib -0.007 | lapatinib -0.018 | pictilisib -0.049 | crizotinib -0.02 | [5] -0.011 | duvelisib -0.037 | gandotinib -0.117 | tozasertib -0.015 | doramapimod 0.001 | bafetinib -0.031 | [6] 0.039

SCAF11 (UniProt Q99590)
inactive: alvocidib -0.062 | Tubastatin A 0.032 | [1] 0.04 | defactinib 0.119 | [2] -0.008 | encorafenib 0.026 | [3] -0.009 | alisertib -0.036 | [4] -0.008 | gefitinib 0.062 | lapatinib 0.014 | pictilisib -0.005 | crizotinib 0.079 | [5] -0.001 | duvelisib 0.028 | gandotinib 0.032 | tozasertib 0.047 | doramapimod 0.033 | bafetinib -0.012 | [6] 0.041

SEPSECS (UniProt Q9HD40)
inactive: alvocidib -0.014 | Tubastatin A 0.025 | [1] 0.041 | defactinib -0.013 | [2] -0.033 | encorafenib 0.014 | [3] -0.005 | alisertib -0.041 | [4] 0.02 | gefitinib 0.003 | lapatinib -0.004 | pictilisib 0 | crizotinib 0.013 | [5] -0.051 | duvelisib 0.029 | gandotinib 0.022 | tozasertib -0.016 | doramapimod -0.017 | bafetinib -0.011 | [6] 0.018

SAP18 isoform 2 (UniProt O00422)
inactive: alvocidib 0.016 | Tubastatin A 0.064 | [1] -0.003 | defactinib -0.002 | [2] 0.089 | encorafenib 0.033 | [3] 0.06 | alisertib 0.032 | [4] -0.016 | gefitinib 0.032 | lapatinib 0.013 | pictilisib -0.027 | crizotinib -0.037 | [5] -0.034 | duvelisib -0.02 | gandotinib -0.003 | tozasertib 0.003 | doramapimod 0.079 | bafetinib -0.002 | [6] 0.031

Three successive records out of the list so far, quoted:
SCAF11 (UniProt Q99590)
inactive: alvocidib -0.062 | Tubastatin A 0.032 | [1] 0.04 | defactinib 0.119 | [2] -0.008 | encorafenib 0.026 | [3] -0.009 | alisertib -0.036 | [4] -0.008 | gefitinib 0.062 | lapatinib 0.014 | pictilisib -0.005 | crizotinib 0.079 | [5] -0.001 | duvelisib 0.028 | gandotinib 0.032 | tozasertib 0.047 | doramapimod 0.033 | bafetinib -0.012 | [6] 0.041

SEPSECS (UniProt Q9HD40)
inactive: alvocidib -0.014 | Tubastatin A 0.025 | [1] 0.041 | defactinib -0.013 | [2] -0.033 | encorafenib 0.014 | [3] -0.005 | alisertib -0.041 | [4] 0.02 | gefitinib 0.003 | lapatinib -0.004 | pictilisib 0 | crizotinib 0.013 | [5] -0.051 | duvelisib 0.029 | gandotinib 0.022 | tozasertib -0.016 | doramapimod -0.017 | bafetinib -0.011 | [6] 0.018

SAP18 isoform 2 (UniProt O00422)
inactive: alvocidib 0.016 | Tubastatin A 0.064 | [1] -0.003 | defactinib -0.002 | [2] 0.089 | encorafenib 0.033 | [3] 0.06 | alisertib 0.032 | [4] -0.016 | gefitinib 0.032 | lapatinib 0.013 | pictilisib -0.027 | crizotinib -0.037 | [5] -0.034 | duvelisib -0.02 | gandotinib -0.003 | tozasertib 0.003 | doramapimod 0.079 | bafetinib -0.002 | [6] 0.031

Further results follow.

SEMA7A (UniProt O75326)
inactive: alvocidib -0.001 | Tubastatin A 0.168 | [1] 0.039 | defactinib 0.026 | [2] 0.03 | encorafenib 0.078 | [3] -0.041 | alisertib 0.238 | [4] 0.008 | gefitinib -0.04 | lapatinib 0.101 | pictilisib -0.036 | crizotinib 0.014 | [5] 0.038 | duvelisib 0.01 | gandotinib -0.007 | tozasertib 0.039 | doramapimod -0.06 | bafetinib 0.007 | [6] -0.054

SDAD1 (UniProt Q9NVU7)
inactive: alvocidib 0.042 | Tubastatin A -0.004 | [1] 0.003 | defactinib 0.005 | [2] 0.048 | encorafenib 0.045 | [3] -0.031 | alisertib 0.007 | [4] -0.016 | gefitinib -0.018 | lapatinib -0.045 | pictilisib -0.014 | crizotinib -0.05 | [5] 0.007 | duvelisib 0.043 | gandotinib -0.014 | tozasertib -0.005 | doramapimod -0.019 | bafetinib -0.082 | [6] 0.067

SEPTIN2 isoform 2 (UniProt Q15019)
inactive: alvocidib -0.053 | Tubastatin A 0.067 | [1] 0 | defactinib -0.026 | [2] 0.019 | encorafenib -0.015 | [3] -0.007 | alisertib 0.027 | [4] 0.016 | gefitinib -0.021 | lapatinib -0.016 | pictilisib 0 | crizotinib -0.026 | [5] -0.004 | duvelisib 0.013 | gandotinib 0.02 | tozasertib -0.019 | doramapimod 0.024 | bafetinib 0.042 | [6] -0.019

SEC24C (UniProt P53992)
inactive: alvocidib 0.025 | Tubastatin A -0.019 | [1] 0.009 | defactinib -0.007 | [2] 0.006 | encorafenib 0.011 | [3] 0.077 | alisertib -0.006 | [4] 0.005 | gefitinib -0.019 | lapatinib -0.01 | pictilisib -0.033 | crizotinib -0.014 | [5] -0.014 | duvelisib -0.003 | gandotinib -0.006 | tozasertib -0.014 | doramapimod 0.022 | bafetinib 0.002 | [6] -0.004

SCCPDH (UniProt Q8NBX0)
active: gandotinib 0.869
inactive: alvocidib -0.051 | Tubastatin A 0.044 | [1] 0.05 | defactinib 0.028 | [2] 0.333 | encorafenib -0.076 | [3] 0.129 | alisertib -0.011 | [4] 0.005 | gefitinib -0.063 | lapatinib 0.108 | pictilisib 0.006 | crizotinib 0.394 | [5] -0.179 | duvelisib 0.195 | tozasertib -0.052 | doramapimod -0.102 | bafetinib -0.015 | [6] 0.034

S100P (UniProt P25815)
inactive: alvocidib 0.186 | Tubastatin A 0.132 | [1] 0.024 | defactinib 0.029 | [2] 0.014 | encorafenib 0.007 | [3] -0.049 | alisertib 0.028 | [4] -0.056 | gefitinib -0.221 | lapatinib 0.075 | pictilisib 0.045 | crizotinib 0.082 | [5] 0.217 | duvelisib -0.021 | gandotinib -0.11 | tozasertib 0.024 | doramapimod -0.025 | bafetinib -0.049 | [6] -0.104

SEC61A1 (UniProt P61619)
inactive: alvocidib -0.051 | Tubastatin A -0.016 | [1] 0.01 | defactinib 0.024 | [2] 0.077 | encorafenib -0.045 | [3] 0.027 | alisertib 0.01 | [4] 0.026 | gefitinib 0.041 | lapatinib -0.005 | pictilisib -0.007 | crizotinib 0.034 | [5] -0.064 | duvelisib 0.011 | gandotinib 0.06 | tozasertib -0.043 | doramapimod -0.092 | bafetinib -0.035 | [6] 0.062

SARG (UniProt Q9BW04)
inactive: alvocidib -0.035 | Tubastatin A 0.014 | [1] 0.053 | defactinib 0.005 | [2] 0.079 | encorafenib 0.015 | [3] -0.072 | alisertib -0.015 | [4] 0.028 | gefitinib 0.053 | lapatinib -0.025 | pictilisib -0.002 | crizotinib 0.028 | [5] 0.006 | duvelisib -0.025 | gandotinib 0.115 | tozasertib -0.072 | doramapimod 0.045 | bafetinib -0.005 | [6] -0.062
